Measured values: patent publication US20220204643A1
Where two headings read alike, the source gives them in different places. Results are given in words; binding and its absence hold for the method and conditions named. Some entries that bind do so weakly or less than the wild type. Each block holds one binder with its values, some of them ahead of it.

Legend:
[1] = molecular target: DIX domain containing 1, transcript variant 2 (human) (UniProt Q155Q3)
[2] = molecular target: DIX domain containing 1, transcript variant 2 (human) (UniProt Q155Q3); experiment: protein array
[3] = molecular target: T1, endoplasmic reticulum protein 27, transcript variant 1 (human) (UniProt Q96DN0)
T1 sequence: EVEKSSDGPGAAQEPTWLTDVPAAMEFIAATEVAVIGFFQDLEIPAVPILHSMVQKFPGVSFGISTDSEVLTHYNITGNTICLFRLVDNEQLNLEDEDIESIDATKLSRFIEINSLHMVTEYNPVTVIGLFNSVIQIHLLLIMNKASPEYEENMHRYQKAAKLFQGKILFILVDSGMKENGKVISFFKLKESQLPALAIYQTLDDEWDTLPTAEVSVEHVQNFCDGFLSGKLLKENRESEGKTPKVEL

[4] = molecular target: T1, endoplasmic reticulum protein 27, transcript variant 1 (human); experiment: protein array
[5] = molecular target: T2, Cytochrome b5 reductase 2 (human) (UniProt Q6BCY4)
T2 sequence: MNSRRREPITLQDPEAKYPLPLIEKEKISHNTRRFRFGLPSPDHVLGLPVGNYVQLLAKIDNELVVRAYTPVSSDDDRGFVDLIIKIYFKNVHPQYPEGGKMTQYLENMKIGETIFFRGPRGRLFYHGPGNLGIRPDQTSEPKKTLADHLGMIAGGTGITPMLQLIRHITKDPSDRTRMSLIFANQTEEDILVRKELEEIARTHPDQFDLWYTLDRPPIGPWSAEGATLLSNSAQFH

[6] = molecular target: T2, Cytochrome b5 reductase 2 (human); experiment: protein array
[7] = molecular target: signal transducer and activator of transcription 5A, transcript variant 2 (human) (UniProt P42229)
[8] = molecular target: quinoid dihydropteridine reductase, transcript variant 1 (human) (UniProt P09417)
[9] = molecular target: signal transducer and activator of transcription 5A, transcript variant 2 (human) (UniProt P42229); experiment: protein array
[10] = molecular target: quinoid dihydropteridine reductase, transcript variant 1 (human) (UniProt P09417); experiment: protein array
[11] = substrate: C-C motif chemokine ligand 2 (human) (UniProt P13500)
[12] = substrate: C-C motif chemokine ligand 2 (human) (UniProt P13500); experiment: protein array
[13] = molecular target: Caspase 8 (human) (UniProt Q14790)
[14] = molecular target: Caspase 8 (human) (UniProt Q14790); experiment: protein array
[15] = molecular target: T3, radial spoke head 14 homolog (human) (UniProt Q9UHP6)
T3 sequence: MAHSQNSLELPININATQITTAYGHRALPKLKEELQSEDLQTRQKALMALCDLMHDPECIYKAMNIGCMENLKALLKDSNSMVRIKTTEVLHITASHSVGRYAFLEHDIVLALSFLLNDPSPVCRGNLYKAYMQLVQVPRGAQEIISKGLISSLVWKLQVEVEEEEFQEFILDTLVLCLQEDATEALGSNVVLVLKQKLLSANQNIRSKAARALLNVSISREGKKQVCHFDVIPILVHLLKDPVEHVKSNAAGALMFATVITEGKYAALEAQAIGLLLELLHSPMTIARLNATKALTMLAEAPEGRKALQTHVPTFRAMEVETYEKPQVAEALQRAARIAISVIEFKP

[16] = molecular target: T3, radial spoke head 14 homolog (human); experiment: protein array
[17] = molecular target: T4, phospholipase C delta 4 (human) (UniProt Q9BRC7)
T4 sequence: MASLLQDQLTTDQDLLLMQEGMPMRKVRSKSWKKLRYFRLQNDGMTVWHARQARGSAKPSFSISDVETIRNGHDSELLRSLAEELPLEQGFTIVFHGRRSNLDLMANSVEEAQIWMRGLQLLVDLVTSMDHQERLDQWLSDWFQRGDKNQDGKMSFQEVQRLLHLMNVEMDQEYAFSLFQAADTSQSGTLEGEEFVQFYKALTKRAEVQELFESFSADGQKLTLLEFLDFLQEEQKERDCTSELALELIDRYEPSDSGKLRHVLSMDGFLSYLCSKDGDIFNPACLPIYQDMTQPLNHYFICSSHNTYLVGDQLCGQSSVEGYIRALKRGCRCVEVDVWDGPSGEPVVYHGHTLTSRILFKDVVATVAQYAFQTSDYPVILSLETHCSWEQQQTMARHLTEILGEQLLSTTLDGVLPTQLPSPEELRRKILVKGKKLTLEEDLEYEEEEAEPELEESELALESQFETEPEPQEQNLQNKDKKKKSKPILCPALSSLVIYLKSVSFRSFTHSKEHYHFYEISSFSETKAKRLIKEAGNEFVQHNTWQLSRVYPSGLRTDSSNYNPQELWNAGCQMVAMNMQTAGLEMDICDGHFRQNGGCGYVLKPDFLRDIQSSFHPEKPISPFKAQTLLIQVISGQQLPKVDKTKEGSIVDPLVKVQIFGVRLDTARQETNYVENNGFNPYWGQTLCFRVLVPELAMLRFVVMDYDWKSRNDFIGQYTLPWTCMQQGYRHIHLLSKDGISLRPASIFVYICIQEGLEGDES

[18] = molecular target: T4, phospholipase C delta 4 (human); experiment: protein array
[19] = molecular target: T5, leucine rich repeat containing 14, transcript variant 1 (human) (UniProt Q15048)
T5 sequence: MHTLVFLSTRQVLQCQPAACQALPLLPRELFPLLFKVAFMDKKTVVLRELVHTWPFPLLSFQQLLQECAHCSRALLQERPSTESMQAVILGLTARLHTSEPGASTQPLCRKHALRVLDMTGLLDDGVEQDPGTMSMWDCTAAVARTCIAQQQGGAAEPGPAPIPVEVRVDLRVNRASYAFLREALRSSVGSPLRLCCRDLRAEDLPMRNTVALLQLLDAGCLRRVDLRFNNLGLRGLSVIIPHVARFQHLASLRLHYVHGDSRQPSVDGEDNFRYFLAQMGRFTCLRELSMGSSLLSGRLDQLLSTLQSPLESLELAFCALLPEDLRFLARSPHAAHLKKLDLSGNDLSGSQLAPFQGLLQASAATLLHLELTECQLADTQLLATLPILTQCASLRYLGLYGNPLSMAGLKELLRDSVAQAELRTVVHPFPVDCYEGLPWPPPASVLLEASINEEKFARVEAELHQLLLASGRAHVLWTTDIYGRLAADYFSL

[20] = molecular target: T6, regulator of G protein signaling 14, transcript variant 1 (human) (UniProt O43566)
T6 sequence: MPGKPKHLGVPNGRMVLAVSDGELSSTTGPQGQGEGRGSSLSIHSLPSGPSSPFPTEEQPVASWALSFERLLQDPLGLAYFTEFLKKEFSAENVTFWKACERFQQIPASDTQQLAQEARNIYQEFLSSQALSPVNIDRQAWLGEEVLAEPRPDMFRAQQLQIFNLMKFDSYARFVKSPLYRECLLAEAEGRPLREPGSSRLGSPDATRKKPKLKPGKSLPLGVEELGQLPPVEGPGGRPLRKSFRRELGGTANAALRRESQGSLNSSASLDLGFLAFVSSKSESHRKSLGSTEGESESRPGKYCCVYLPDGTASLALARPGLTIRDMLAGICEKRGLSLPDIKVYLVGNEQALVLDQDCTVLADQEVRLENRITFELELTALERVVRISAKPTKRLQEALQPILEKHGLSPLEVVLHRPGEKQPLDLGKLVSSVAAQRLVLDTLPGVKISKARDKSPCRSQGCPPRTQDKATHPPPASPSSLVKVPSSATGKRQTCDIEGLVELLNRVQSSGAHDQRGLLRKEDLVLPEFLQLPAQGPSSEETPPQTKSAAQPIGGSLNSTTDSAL

[21] = molecular target: T5, leucine rich repeat containing 14, transcript variant 1 (human); experiment: protein array
[22] = molecular target: T6, regulator of G protein signaling 14, transcript variant 1 (human); experiment: protein array

B2: TPAN1002 (antibody, V domains shown)
VH: QVQLVQSGTEMKRPGSSVKVSCKASGGTFNFYAINWVRQAPGQGLEWMGGIVPIFDTTTYAQRFQGRVTITADESTTTVHMELSSLRFDDTAVYYCARDQSGADRFDSWGQGTLVTVSS
VL: QSALTQPASVSGSPGQSITISCTGTTSDVGTYNLVSWYQQLPGKAPKLIIYEVTKRPSGVSNRFSASKSGSTASLTISGLQAEDEADYYCCSYAGSSTYVFGSGARVTVLG
binding [3]: binds
binding [4]: binds

B4: TSAR1007 (antibody, V domains shown)
VH: EVQLVESGGGVVRPGGSLRLSCAASGFTFDDYGMSWVRQAPGKGLEWVSGIHWNGGSTGYADSVKGRFTISRDNAKNSLYLQMNSLRAEDTALYHCARSTASSGYYDAFDIWGQGTMVTVSS
VL: LYVLTQPPSVSVAPGQTARITCGGNNIGSKSVHWYQQKPGQAPVLVVYDDSDRPSGIPERFSGSNSGNTATLTISRVEAGDEADYYCQVWDSSSDHWIFGGGTKLTVLG
binding [7]: binds
binding [8]: binds
binding [9]: binds
binding [10]: binds

B5: TREC1002 (antibody, V domains shown)
VH: EVQVVESGGGLVQPGRSLRLSCTPSGFTFGDNAMGWFRQAPGKGLEWVGFIRSKAYGGTRDYAASVKGRFTISRDDSKSIAYLQMNSLKTEDTAVYYCTRERPPNCGSSCPETWGQGTLVTVSS
VL: PAVVTQEPSLTVSPGGTVTLTCGSSTGVVTTGHYPYWFQQKPGQAPTTLIFDTSNKHSWTPARFSGSLLGGKAALTLSAAQPEDEADYYCWLISGGAPVFGGGTKLTVLG
binding [11]: binds
binding [12]: binds

B7: TREC1001 (antibody, V domains shown)
VH: QEQLVQSGAEVKKPGSSVKVSCKVSGGPFKTYPINWVRQAPGQGLEWMGGITPNSGTPNYAQKFQGRVTITADESTTTVYMQLSSLRSEDTAVYYCARVHNWDFYYGMDVWGLGTTVTVSS
VL: QSVLTQPPSASGTPGQRVTISCSGSSSNIGSNTVNWYQQFPGTAPKLLIYSNNHRPLGVPDRFSGSKSGTSASLAISEVRSEDEADYYCATWDDSLNGGVFGAGTKLTVVG
binding [15]: binds
binding [16]: binds

B8: TSAR1002 (antibody, V domains shown)
VH: EVQLVESGGGLVQPGGSLRLSCAASGFTFSSYSMNWVRQAPGKGLEWVSYISSSSSTIYYADSVKGRFTISRDNAKNSLYLQMNSLRAEDTAVYYCARDIALGRGGMDVWGQGTTVTVSS
VL: AIQMTQSPSSLSASVGDRVTITCRASQGIRNDLGWYQQKPGKAPKLLIYAASSLQSGVPSRFSGSGSGTDFTLTISSLQPEDFATYYCLQDYNYPPTFGQGTKVEIKR
binding [17]: binds
binding [18]: binds

B9: TSTO1007 (antibody, V domains shown)
VH: PVQLVQSGAQVKKPGASVRLSCKSSGYTFSNYAIHWLRQAPGQRLEWVGWIHVGNDHTRYSQSFQGRVTISADTSANTAYMEVRGLRSEDTSLFYCARAGAEGVDYWGQGTQVTVSS
VL: RSVLTQPPSASGTPGQTVTISCSGSRSNIGSNFVYWYQHLPGSAPKTTIHSNTQRPPGVPDRFSGSKSGTSASLAISGLRSEDEADYYCVTWDDDLHGWVFGGGTRLTVLG
binding [19]: binds
binding [20]: binds
binding [21]: binds
binding [22]: binds

The remaining lines, values ahead:

binding [1]: binds
binding [2]: binds
B1: TTHY1001 (antibody, V domains shown)
VH: EVQLLESGGGLVQPGGSLRLSCVASGFTFASYGMAWVRQAPGQGLTWICFVGSGDTTHYAESVKGRFTCSRDNSNNTLYLHMSGLRGADTAKYYCAKPNSPFTGSGSFHNYFDYWGQGALVIVSS
VL: DIQMTQSPSSLSASVGDRVTFTCRASQNIRNNLAWYQLKPGKAPQLLIYSASSLETGVPSRFSGSGSGTDFTLAISSLQPEDFATYYCQQAHGFPITFGQGS

binding [5]: binds
binding [6]: binds
B3: TTES1005 (antibody, V domains shown)
VH: QLQLQESGPGLVKPSETLSLTCTVAGDSISRSNYYWAWIRQPPGKGLEWIGSIIHTGTTYHNPSLRSRGTILVDTSKNQFSLKLSSVTAADTGLYYCARHSGHDQLPLDFDNWGQGTLVTVSS
VL: ENVLTQSPGTLSLSPGERATLSCRASQRVNSNYLAWYQQKSGQAPRLLIYGASSRATGIPDRFSGSGSGTDFTLTISRLEPEDFAVYYCQQYGGSPLFTFGPGTKVDIKR

binding [13]: binds
binding [14]: binds
B6: TTES1002 (antibody, V domains shown)
VH: QVQLQESGPGLVKPSETLSLICTVSGASVNSGTHFWSWIRQPPGKGLEWIGYVYYSGNTNYNPSLKSRVAISVDTSKNQFSLKLTSVTSADTAVYYCARDFDDGYDIRYWGQGTRVSVSS
VL: QSALTQPASVSGSPGQSITISCTGSSNDIGRYKYVSWFQHHPGRAPKLIIYEVNNRPSGLSHRFSGSKSGNTASLTISGLQAEDEADYYCCSYTSSLTYVFGTGTAVTVL
